Results from PubChem BioAssay AID463116 (University of Pittsburgh Molecular Library Screening Center, 2010).
The list shows a part of the results. Further columns of the screen follow, without active or inactive calls. Compounds called inactive in the main read-out are mostly missing here.

Assay: dynein cargo transport inhibitors, GR-EGFP translocation, confirmation, imaging, high-content imaging, GR-EGFP cells (AID 463116)
Details: 3617.4 GR-EGFP nuclear translocation imaging, dexamethasone-induced; measured here: cell count per field; at 20 µM

Row | Structure (SMILES) | z-score
1 | CC(=O)/C=C/n1c(=S)oc2ccccc21 | -0.152
2 | COc1ccc(C2=CC(=O)N(Nc3ccccc3)C2=O)cc1 | 0.228
3 | Cc1ncc(CCl)c2c1OC(C)(C)OC2 | 0.375
4 | CC(=O)Nc1sc(/C(C#N)=C\c2cccc(Cl)c2)nc1-c1ccc(C)cc1 | -0.703
5 | Cc1ccc(SC(=O)c2c(C)noc2-c2cc(C)on2)cc1 | -0.185
6 | O=C1CCCC(O)=C1C(C#Cc1ccccc1)C1=C(O)CCCC1=O | 0.686
7 | Cc1ccccc1NC(=O)COC(=O)c1ccc(S(C)(=O)=O)c([N+](=O)[O-])c1 | 0.408
8 | CN(C)c1ccc(/C=C2\CCC/C(=C\c3ccccc3)C2=O)cc1 | 0.395
9 | CC(C)C(=O)N1CCN(c2ccc(NC(=O)c3ccc([N+](=O)[O-])o3)cc2Cl)CC1 | 0.485
10 | Cc1cc(C)cc(N=Cc2[nH]c3ccc(Br)c(Cl)c3c2O)c1 | 0.167
11 | COc1cc(N2C(=O)C=CC2=O)c(OC)cc1Cl | -1.86
12 | Fc1ccc(CNc2nc(-c3ccco3)cc(C(F)(F)F)n2)cc1 | 1.23
13 | CCOC(=O)c1c(-c2ccc(C)cc2)csc1NC(=O)/C(C#N)=C/c1ccc(O)c(OC)c1 | 0.248
14 | COC(=O)c1cc(=O)n(Cc2ccco2)c(=Nc2ccc(F)c(Cl)c2)s1 | 0.235
15 | COc1ccc(-c2cc(C(F)(F)F)nc(S(C)(=O)=O)n2)cc1 | -0.0975
16 | CCOC(=O)/C(=C\c1cccnc1)C(=O)c1cc(C(C)=O)c(Nc2ccccc2)s1 | 0.172
17 | Cc1nc(SC2CC(=O)N(c3ccccc3)C2=O)n[nH]1 (centres undefined) | -0.0695
18 | CCN(CC)c1ccc(/C=N/NC(=O)C(O)(c2ccccc2)c2ccccc2)o1 | -0.278
19 | Cc1ccccc1CS(=O)(=O)c1nnc([C@H](CC(C)C)NC(=O)OC(C)(C)C)o1 | 0.00937
20 | Cn1cc([N+](=O)[O-])c(C(=O)Nc2cc(Oc3ccccc3)cc([N+](=O)[O-])c2)n1 | 0.28
21 | Cc1nc([N+](=O)[O-])c(Br)n1Cc1ccc(Cl)c(Cl)c1 | -0.463
22 | O=C(NCc1cccnc1)/C(=C/c1ccc(-c2cccc(Cl)c2)o1)S(=O)(=O)c1ccccc1 | 0.262
23 | CCSc1nnc(-c2sc3nnc(-c4ccccc4)c(-c4ccccc4)c3c2N)o1 | 0.224
24 | Nc1c(C(=O)C2CC2)sc2nc(-c3ccccc3)cc(C(F)(F)F)c12 | 0.041
25 | CCOC(=O)CSC1=NC(=O)/C(=C/c2ccc(Br)cc2)S1 | 0.936
26 | Cc1cccc(NC(=O)CN2C(=O)N/C(=C/c3ccc(C)s3)C2=O)c1 | 0.722
27 | O=C1C(Cl)=C(NCCN2CCCCC2)C(=O)c2ccccc21 | -0.334

Row | Structure (SMILES) | z-score
28 | Cc1ccc(C(C[N+](=O)[O-])n2nc(C)cc2C)cc1 (centres undefined) | -1.61
29 | CSC(SC)=C(C#N)C(=O)c1ccccc1 | 0.472
30 | O=[N+]([O-])c1ccc(N/N=C/c2cn(Cc3ccc(F)cc3)c3ccccc23)nc1 | 0.522
31 | N#C/C(=C/c1ccc(N2CCCCCC2)o1)c1ccc(Cl)cc1 | 0.321
32 | O=[N+]([O-])c1ccc(C=Nc2ccc(Cl)c([N+](=O)[O-])c2)s1 | 0.206
33 | CCN(CC)Cc1cc(O)c(CN(CC)CC)cc1O | 0.27
34 | Cc1nc([N+](=O)[O-])c(Br)n1CC(=O)c1ccccc1 | 0.378
35 | N#C/C(=C\c1sc(N2CCOCC2)nc1-c1ccccc1)C(=O)Nc1cccc2ccccc12 | 0.159
36 | CC(C)Cn1c([N+](=O)[O-])nc2c1c(=O)[nH]c(=O)n2C | 0.365
37 | Cc1cc(C(=O)CCl)c(C)n1CCc1ccc(Cl)cc1 | 0.517
38 | CCOC(=O)/C(=C/C=C1\Sc2cc(C)c(C)cc2N1CC)C(C)=O | 0.415
39 | Cc1sc(NC(=O)CCl)c(C(=O)c2ccccc2)c1C | 0.138
40 | Cc1cc2oc(=O)cc(Cn3ncc(Cl)c(Cl)c3=O)c2cc1Cl | -0.331
41 | CCCNC(=O)Cn1sc2nc(C)cc(C)c2c1=O | -0.751
42 | CCOC(=O)/C(=C\C=C1/Sc2cc(OCC)c(OCC)cc2N1CC)C(C)=O | -0.3
43 | Cc1cc(Cl)n2c(nc3cc(F)c(F)cc32)c1C#N | -0.457
44 | COc1ccc(C(=O)n2nc(-c3ccco3)nc2SC)cc1OC | 0.796
45 | CCOC(=O)C=C(C(=O)OCC)C(=O)OCC | -0.0898
46 | COc1ccccc1-[n+]1c(C)cc(/C=C2\Sc3ccccc3N2C)cc1C | -0.758
47 | CCN1C/C(=C/c2ccc(N3CCOCC3)cc2)C(=O)/C(=C/c2ccc(N3CCOCC3)cc2)C1 | -0.486
48 | Cc1cc(C)c2c(=O)n(CC(=O)NC3CCCC3)sc2n1 | 0.131
49 | CC(=O)OCCCNc1cc(Sc2ccc(Cl)cc2)c2nonc2c1[N+](=O)[O-] | -0.19
50 | Cc1ccc(-n2nnnc2Sc2ccc(S(=O)(=O)NCCN(C)C)cc2[N+](=O)[O-])cc1 | 0.731
51 | CCOc1ccc(-n2c(C)cc(C(=O)CCl)c2C)cc1 | -0.0309
52 | CCC(=O)N1CCN(c2ccc(NC(=O)c3ccc([N+](=O)[O-])o3)cc2Cl)CC1 | 0.0525
53 | COc1ccc(-n2c(C)cc(C(=O)CCl)c2C)cc1 | 0.308
54 | Cn1c(=O)c(NCCO)c2c3c(cccc31)C(=O)c1ccccc1-2 | 0.742

3 entries from above, arranged by length of the SMILES, descending.
Row | Structure (SMILES) | z-score
35 | N#C/C(=C\c1sc(N2CCOCC2)nc1-c1ccccc1)C(=O)Nc1cccc2ccccc12 | 0.159
36 | CC(C)Cn1c([N+](=O)[O-])nc2c1c(=O)[nH]c(=O)n2C | 0.365
37 | Cc1cc(C(=O)CCl)c(C)n1CCc1ccc(Cl)cc1 | 0.517
